In patent US20250213575A1, “8-HETEROCYCLIC-3-(PHENYLSULFONYL)-[1,2,3]TRIAZOLO[1,5A]QUINAZOLIN-5(4H)-ONE DERIVATIVES AS ANTI-BACTERIALS” (priority 2022, published 2025):
At least one structure is not confirmed: it was looked up by name or label, or the drawing left a doubt. Some results were stated once for a whole list of compounds, not compound by compound.

By UniProt entry, the sequences of proteins in these tests, tags left out. Where a name states a change or a piece, a line headed by the entry shows the natural chain unless it says otherwise.
UniProt P0A0I7: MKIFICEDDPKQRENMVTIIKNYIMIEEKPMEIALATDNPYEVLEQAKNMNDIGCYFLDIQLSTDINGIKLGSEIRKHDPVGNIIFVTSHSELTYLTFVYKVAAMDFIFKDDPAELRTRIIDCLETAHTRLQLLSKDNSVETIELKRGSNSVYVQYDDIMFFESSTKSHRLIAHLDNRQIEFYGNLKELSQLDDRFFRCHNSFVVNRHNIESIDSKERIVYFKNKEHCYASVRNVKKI

Molecular target: AgrA (Staphylococcus aureus, UniProt P0A0I7)
Assay type: cell-based, S. aureus USA300 strain UAMS-1625
Details: for loss of activity in the presence of HS: in the presence of HS vs absence; for Ratio IC50 (in presence of HSA)/IC50 (in absence of HSA): 40 mg/mL HSA vs without HSA

| SMILES | loss of activity in the presence of HS [fold] | Ratio IC50 (in presence of HSA)/IC50 (in absence of HSA) |
| --- | --- | --- |
| COCCOc1cc2c(cc1O)c(=O)[nH]c1c(S(=O)(=O)c3ccc(C)cc3C)nnn12 [58 (WO 2020/109350), reference compound] | > 200 |  |
| Cc1ccc(S(=O)(=O)c2nnn3c2[nH]c(=O)c2ccc(N4CC5CCC(C4)N5)cc23)c(C)c1 [Compound 50] |  | +++ (ratio ≤ 25) |
| CCN(CC)CCC(=O)N1CCN(c2ccc3c(=O)[nH]c4c(S(=O)(=O)c5ccc(C)cc5C)nnn4c3c2)CC1 [Compound 58, 8-{4-[3-(diethylamino)propanoyl]piperazin-1-yl}-3-(2,4-dimethylbenzenesulfonyl)-4H,5H-[1,2,3]triazolo[1,5-a]quinazolin-5-one] |  | +++ (ratio ≤ 25) |
| Cc1ccc(S(=O)(=O)c2nnn3c2[nH]c(=O)c2cc(O)ccc23)c(C)c1 [46 (WO 2020/109350), reference compound] | > 200 |  |
